The record followed here is publication PMC10442049.

By UniProt entry, the sequences of proteins in these tests, tags left out.
UniProt F4JP43: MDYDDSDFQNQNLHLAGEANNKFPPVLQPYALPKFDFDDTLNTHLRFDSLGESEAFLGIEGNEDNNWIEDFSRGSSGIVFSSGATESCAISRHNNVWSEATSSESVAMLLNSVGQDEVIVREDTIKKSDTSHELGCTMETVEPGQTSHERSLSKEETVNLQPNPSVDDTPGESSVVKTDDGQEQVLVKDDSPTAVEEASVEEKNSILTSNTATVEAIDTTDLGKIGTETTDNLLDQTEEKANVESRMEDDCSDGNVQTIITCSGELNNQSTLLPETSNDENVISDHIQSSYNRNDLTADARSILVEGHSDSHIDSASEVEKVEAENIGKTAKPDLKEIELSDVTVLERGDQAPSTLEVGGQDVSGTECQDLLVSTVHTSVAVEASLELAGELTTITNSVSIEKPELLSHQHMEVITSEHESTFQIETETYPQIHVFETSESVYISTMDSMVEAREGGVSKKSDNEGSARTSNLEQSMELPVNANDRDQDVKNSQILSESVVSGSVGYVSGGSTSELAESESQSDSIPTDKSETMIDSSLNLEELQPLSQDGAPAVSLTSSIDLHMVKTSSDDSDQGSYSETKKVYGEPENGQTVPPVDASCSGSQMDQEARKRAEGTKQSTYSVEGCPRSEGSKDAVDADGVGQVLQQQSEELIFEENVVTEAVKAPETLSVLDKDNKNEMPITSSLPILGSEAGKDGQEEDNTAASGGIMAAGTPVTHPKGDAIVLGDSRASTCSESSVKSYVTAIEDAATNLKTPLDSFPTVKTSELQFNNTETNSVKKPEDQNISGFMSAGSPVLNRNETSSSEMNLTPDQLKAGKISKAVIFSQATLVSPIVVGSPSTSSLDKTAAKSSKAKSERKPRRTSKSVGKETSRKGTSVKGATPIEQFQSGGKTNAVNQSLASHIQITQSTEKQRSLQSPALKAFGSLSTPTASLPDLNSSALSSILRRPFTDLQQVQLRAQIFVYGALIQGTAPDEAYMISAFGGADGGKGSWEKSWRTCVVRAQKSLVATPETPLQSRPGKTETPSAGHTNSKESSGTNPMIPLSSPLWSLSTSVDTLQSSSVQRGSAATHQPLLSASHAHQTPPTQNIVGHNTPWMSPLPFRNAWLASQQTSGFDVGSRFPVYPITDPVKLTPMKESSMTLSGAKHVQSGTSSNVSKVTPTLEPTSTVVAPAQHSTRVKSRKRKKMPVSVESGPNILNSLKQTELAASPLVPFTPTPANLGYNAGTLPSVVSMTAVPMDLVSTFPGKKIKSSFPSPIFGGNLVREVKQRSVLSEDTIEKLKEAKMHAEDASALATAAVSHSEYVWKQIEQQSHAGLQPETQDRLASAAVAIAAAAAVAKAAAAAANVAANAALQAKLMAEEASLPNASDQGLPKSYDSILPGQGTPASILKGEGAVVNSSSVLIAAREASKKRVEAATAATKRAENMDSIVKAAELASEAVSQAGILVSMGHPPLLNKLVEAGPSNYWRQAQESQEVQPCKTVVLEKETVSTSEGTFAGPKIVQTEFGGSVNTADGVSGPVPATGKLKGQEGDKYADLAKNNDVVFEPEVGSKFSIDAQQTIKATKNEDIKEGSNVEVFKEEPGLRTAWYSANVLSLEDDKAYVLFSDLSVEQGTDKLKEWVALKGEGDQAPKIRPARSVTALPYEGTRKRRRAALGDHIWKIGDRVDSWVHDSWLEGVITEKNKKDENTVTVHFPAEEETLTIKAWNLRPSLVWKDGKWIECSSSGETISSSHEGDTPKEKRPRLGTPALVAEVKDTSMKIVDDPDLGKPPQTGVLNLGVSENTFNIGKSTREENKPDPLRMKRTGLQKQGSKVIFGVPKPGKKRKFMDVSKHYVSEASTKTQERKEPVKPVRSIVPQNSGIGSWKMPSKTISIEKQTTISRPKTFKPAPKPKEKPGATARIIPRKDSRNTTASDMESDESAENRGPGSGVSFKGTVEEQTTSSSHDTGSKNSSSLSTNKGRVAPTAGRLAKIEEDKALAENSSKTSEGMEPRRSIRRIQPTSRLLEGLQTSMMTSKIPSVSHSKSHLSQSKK
UniProt Q8RWY3: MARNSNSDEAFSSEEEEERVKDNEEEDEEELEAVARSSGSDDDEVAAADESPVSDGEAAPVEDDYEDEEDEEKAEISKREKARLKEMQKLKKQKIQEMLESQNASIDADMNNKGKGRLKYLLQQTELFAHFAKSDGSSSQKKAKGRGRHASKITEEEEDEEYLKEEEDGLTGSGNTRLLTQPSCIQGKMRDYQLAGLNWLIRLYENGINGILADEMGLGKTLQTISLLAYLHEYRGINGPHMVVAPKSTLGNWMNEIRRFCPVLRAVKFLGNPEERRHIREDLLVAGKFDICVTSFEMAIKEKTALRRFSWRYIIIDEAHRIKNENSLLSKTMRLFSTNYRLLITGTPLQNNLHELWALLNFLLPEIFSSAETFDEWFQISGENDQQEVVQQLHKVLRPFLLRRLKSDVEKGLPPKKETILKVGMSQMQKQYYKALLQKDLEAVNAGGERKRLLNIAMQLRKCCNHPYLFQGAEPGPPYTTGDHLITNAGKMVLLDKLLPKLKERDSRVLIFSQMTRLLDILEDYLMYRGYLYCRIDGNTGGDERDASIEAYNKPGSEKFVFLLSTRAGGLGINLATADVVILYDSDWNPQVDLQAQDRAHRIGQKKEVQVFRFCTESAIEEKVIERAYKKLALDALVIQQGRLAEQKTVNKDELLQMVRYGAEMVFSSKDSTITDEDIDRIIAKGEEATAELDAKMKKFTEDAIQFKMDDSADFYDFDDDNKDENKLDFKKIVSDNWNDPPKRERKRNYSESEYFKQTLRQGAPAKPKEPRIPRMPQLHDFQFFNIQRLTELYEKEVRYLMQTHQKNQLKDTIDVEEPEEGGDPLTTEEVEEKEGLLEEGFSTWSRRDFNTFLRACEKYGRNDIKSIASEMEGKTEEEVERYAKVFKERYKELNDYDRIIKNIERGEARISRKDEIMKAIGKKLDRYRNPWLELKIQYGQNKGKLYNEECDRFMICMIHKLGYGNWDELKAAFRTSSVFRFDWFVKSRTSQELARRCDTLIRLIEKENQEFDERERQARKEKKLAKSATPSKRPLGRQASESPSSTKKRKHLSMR
UniProt F4JL11: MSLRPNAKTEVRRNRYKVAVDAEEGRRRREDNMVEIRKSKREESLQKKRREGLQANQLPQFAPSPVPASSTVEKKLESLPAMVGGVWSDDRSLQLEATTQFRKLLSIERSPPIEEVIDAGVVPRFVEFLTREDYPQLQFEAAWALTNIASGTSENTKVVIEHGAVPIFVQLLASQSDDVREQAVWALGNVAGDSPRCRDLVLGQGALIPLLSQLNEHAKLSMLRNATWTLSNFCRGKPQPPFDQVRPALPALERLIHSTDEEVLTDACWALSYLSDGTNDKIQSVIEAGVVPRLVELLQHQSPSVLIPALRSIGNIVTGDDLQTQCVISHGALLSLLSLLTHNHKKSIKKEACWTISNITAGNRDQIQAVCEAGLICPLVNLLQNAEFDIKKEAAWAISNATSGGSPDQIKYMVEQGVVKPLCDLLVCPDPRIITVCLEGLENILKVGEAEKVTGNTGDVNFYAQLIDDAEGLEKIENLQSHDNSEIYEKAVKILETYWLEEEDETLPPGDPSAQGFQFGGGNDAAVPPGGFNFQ
UniProt Q9SMV6: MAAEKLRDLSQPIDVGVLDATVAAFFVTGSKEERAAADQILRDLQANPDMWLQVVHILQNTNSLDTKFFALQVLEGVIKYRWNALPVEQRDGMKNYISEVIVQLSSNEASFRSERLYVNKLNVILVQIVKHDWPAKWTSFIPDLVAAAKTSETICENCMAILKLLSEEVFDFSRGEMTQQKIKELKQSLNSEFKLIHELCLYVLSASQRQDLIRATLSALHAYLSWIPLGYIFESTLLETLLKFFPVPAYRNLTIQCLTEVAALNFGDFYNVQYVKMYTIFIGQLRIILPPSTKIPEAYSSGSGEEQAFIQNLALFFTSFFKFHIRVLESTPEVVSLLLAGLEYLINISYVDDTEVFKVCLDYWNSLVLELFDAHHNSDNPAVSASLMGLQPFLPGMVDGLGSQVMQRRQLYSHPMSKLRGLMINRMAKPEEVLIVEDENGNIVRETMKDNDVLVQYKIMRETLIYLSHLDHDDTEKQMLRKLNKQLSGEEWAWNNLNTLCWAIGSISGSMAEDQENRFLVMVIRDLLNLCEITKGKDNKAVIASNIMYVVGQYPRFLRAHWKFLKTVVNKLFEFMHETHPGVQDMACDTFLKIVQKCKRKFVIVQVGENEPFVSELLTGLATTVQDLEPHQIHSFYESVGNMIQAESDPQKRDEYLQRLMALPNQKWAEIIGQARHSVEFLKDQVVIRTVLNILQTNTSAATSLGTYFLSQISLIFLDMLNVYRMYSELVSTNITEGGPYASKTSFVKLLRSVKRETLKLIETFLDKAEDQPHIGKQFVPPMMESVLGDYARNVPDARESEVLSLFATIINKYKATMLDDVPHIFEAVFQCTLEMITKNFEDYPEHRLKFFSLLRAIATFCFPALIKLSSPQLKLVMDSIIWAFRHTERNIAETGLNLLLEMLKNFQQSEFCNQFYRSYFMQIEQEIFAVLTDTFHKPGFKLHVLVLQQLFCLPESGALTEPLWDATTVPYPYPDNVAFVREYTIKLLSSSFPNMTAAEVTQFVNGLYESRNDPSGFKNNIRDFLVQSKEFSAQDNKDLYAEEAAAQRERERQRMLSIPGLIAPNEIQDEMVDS
UniProt Q96321: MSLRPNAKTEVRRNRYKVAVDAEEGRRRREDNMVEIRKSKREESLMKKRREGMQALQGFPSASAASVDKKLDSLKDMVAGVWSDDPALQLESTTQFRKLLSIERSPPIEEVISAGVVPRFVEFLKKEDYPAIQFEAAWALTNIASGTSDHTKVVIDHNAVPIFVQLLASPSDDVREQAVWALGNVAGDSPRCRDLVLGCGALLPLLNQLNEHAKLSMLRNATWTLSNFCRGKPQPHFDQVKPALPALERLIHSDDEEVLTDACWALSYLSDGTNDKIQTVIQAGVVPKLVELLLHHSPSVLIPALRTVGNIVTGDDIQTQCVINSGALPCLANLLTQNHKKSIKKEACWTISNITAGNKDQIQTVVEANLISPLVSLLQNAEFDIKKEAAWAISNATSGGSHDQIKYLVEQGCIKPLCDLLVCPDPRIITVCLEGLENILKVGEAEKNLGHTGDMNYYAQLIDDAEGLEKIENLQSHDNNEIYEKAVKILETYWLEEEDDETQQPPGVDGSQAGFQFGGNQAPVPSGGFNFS
UniProt O04294: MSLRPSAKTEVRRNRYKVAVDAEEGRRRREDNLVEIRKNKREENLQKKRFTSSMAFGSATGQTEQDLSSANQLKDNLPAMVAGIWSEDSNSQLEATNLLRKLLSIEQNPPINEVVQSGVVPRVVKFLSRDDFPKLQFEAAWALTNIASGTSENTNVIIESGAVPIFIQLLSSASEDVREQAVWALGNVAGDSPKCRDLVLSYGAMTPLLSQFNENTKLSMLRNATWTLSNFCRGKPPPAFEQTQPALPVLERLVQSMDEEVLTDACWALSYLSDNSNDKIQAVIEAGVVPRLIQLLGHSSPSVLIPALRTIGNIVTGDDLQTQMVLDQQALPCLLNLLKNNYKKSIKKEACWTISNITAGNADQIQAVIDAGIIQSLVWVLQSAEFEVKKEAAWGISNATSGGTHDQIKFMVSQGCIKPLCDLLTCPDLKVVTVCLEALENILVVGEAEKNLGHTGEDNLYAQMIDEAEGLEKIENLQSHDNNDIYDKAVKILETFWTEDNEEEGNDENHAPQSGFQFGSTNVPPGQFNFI
UniProt O80480: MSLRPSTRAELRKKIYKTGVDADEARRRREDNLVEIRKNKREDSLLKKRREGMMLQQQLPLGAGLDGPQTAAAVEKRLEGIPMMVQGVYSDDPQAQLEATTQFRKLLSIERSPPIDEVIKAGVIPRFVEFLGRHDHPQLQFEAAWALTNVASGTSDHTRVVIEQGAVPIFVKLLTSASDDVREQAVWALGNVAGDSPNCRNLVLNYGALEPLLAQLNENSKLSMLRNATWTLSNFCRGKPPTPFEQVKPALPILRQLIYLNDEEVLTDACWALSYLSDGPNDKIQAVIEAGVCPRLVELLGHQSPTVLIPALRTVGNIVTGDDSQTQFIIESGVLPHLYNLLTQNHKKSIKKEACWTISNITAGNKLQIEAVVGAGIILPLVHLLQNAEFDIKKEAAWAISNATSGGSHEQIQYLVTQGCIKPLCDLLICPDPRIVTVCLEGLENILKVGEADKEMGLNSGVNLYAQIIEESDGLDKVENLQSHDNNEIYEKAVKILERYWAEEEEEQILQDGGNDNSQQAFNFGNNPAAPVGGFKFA

B1: UBP12, endogenous (protein, UniProt Q9FPT1 1-1116)
chain: MTMMTPPPVDQPEDEEMLVPNSDLVDGPAQPMEVTQPETAASTVENQPAEDPPTLKFTWTIPNFSRQNTRKHYSDVFVVGGYKWRILIFPKGNNVDHLSMYLDVSDAASLPYGWSRYAQFSLAVVNQIHTRYTVRKETQHQFNARESDWGFTSFMPLSELYDPSRGYLVNDTVLVEAEVAVRKVLDYWSYDSKKETGFVGLKNQGATCYMNSLLQTLYHIPYFRKAVYHMPTTENDAPTASIPLALQSLFYKLQYNDTSVATKELTKSFGWDTYDSFMQHDVQELNRVLCEKLEDKMKGTVVEGTIQQLFEGHHMNYIECINVDFKSTRKESFYDLQLDVKGCKDVYASFDKYVEVERLEGDNKYHAEGHGLQDAKKGVLFIDFPPVLQLQLKRFEYDFMRDTMVKINDRYEFPLELDLDREDGKYLSPDADRSVRNLYTLHSVLVHSGGVHGGHYYAFIRPTLSDQWYKFDDERVTKEDLKRALEEQYGGEEELPQTNPGFNNNPPFKFTKYSNAYMLVYIRESDKDKIICNVDEKDIAEHLRVRLKKEQEEKEDKRRYKAQAHLYTIIKVARDEDLKEQIGKDIYFDLVDHDKVRSFRIQKQTPFQQFKEEVAKEFGVPVQLQRFWIWAKRQNHTYRPNRPLTPQEELQPVGQIREASNKANTAELKLFLEVEHLDLRPIPPPEKSKEDILLFFKLYDPEKAVLSYAGRLMVKSSSKPMDITGKLNEMVGFAPDEEIELFEEIKFEPCVMCEHLDKKTSFRLCQIEDGDIICFQKPLVNKEIECLYPAVPSFLEYVQNRQLVRFRALEKPKEDEFVLELSKQHTYDDVVEKVAEKLGLDDPSKLRLTSHNCYSQQPKPQPIKYRGVDHLSDMLVHYNQTSDILYYEVLDIPLPELQGLKTLKVAFHHATKEEVVIHNIRLPKQSTVGDVINELKTKVELSHPDAELRLLEVFYHKIYKIFPSTERIENINDQYWTLRAEEIPEEEKNIGPNDRLILVYHFAKETGQNQQVQNFGEPFFLVIHEGETLEEIKNRIQKKLHVSDEDFAKWKFAFMSMGRPEYLQDTDVVYNRFQRRDVYGAFEQYLGLEHADTTPKRAYAANQNRHAYEKPVKIYN
B2: KPNB1 (importin beta), endogenous (protein, UniProt Q9FJD4 1-870)
chain: MAMEVTQLLINAQSIDGTVRKHAEESLKQFQEQNLAGFLLSLAGELANDEKPVDSRKLAGLVLKNALDAKEQHRKYELVQRWLALDMSTKSQIRAFLLKTLSAPVPDVRSTASQVIAKVAGIELPQKQWPELIVSLLSNIHQLPAHVKQATLETLGYLCEEVSPDVVEQEHVNKILTAVVQGMNAAEGNTDVRLAATRALYMALGFAQANFNNDMERDYIMRVVCEATLSPEVKIRQAAFECLVSIASTYYEKLAHYMQDIFNITAKAVREDDESVALQAIEFWSSICDEEIDILEEYGGEFAGDSDVPCFYFTKQALPGLVPLLLETLLKQEEDQDLDEGAWNIAMAGGTCLGLVARAVGDDIVPHVMPFIEEKISKPDWREREAATYAFGSILEGPSADKLMAIVNAALTFMLNALTNDPSNHVKDTTAWTLGRIFEFLHGSTIETPIINQANCQQIITVLIQSMNDAPNVAEKACGALYFLAQGYEDIGPSSPLTPFFQEIIKSLLAVAHREDATESRLRTAAYEALNEVVRCSTDETSTMVLQLVPVIMMELHNTLEGEKLSLDEREKQNELQGLLCGCLQVIIQKLGSEPTKSKFMEYADQMMGLFLRVFGCRSATAHEEAMLAIGALAYAAGPNFAKYMPEFYKYLEMGLQNFEEYQVCAVTVGVVGDVCRALEDKILPYCDGIMTQLLKDLSSNQLHRSVKPPIFSCFGDIALAIGEDFDKYWRYSMPMLQSAAELSAHSAGADDEMTEYTNSLRNGILEAYSGIFQGFKNSAKTQLLIPFAPHILQFLDSIYMEKDMDEVVMKTAIGVLGDLADTLGSHVGGLIQQSVSSKEFLNECLSSEDHTIKEAAEWAKHAITRAISV
B3: WIT1, endogenous (protein, UniProt Q8L7E5 1-703)
chain: METETEHDRTVSVDDNDSLVPEPSSTKESFFEDLSLTGQVMNPQLSSAGEVLTKVELDFAFVSEKLVNLSLLTMQLGTRENDFESFVSKKEEDEEEPSSNVDDDDDSAEKALEFDLLSSILNSEVKELESLLGFLQNEIQSARVMISPFQHDGEAFLDLEGKLNDTEQSLGQLMEQVVEMKKQSSNFQRLSSGLDEQGSWSGGQTSVSQNDGEFGDLSAKINMQTADQQRNVLRMLEKSLAKEMELEKKLSESRNTERELEMKLYSSEQDVVYMEEVTEDAFSRWLEADNAAEVFKGTSKEMSGKLQILQFNLSGSFKREDNLKSKLVDSKERLEAKECALHKLDSSNARLADFLVAQTEGLKESLQEAEEKLILLNTENSTLSEKVSSLEEQLNEYGIQTEDADATSGALITDLERINEELKDKLAKTEARAEETESKCKILEESKKELQDELGNFRDKGFTIHKLASLEKHLRDSDLQLEHAVAAVEASKEKQNLLYSTVSDMEDVIEDLKSKVLKAENRADITEEKLIMVSESNAEVNEELKFFKGRLKEGEKYLQQAEERKLRTAKDIGVHNKIMKKLVMQLAAERERLHKQITNLSRENCVLMVKLKKVGKTGYMESGNGSEVSPKSDQNASSCHQGSRLQATFISLTNPEEEETGSKSDIGSVRRLDVGALRFKHILVAILVILISSIAYVISQQNM
B4: UBP13, endogenous (protein, UniProt Q84WU2 1-1115)
chain: MTMMTPPPLDQQEDEEMLVPNPDLVEGPQPMEVAQTDPAATAVENPPPEDPPSLKFTWTIPMFTRLNTRKHYSDVFVVGGYKWRILIFPKGNNVDHLSMYLDVADAANLPYGWSRYSQFSLAVVNQVNNRYSIRKETQHQFNARESDWGFTSFMPLSELYEPTRGYLVNDTVLIEAEVAVRKVLDYWSYDSKKETGFVGLKNQGATCYMNSLLQTLYHIPYFRKAVYHMPTTENDAPTASIPLALQSLFYKLQYNDTSVATKELTKSFGWDTYDSFMQHDVQELNRVLCEKLEDKMKGTVVEGTIQKLFEGHHMNYIECINVDYKSTRKESFYDLQLDVKGCKDVYASFDKYVEVERLEGDNKYHAEGHDLQDAKKGVLFIDFPPVLQLQLKRFEYDFMRDTMVKINDRYEFPLQLDLDREDGRYLSPDADKSVRNLYTLHSVLVHSGGVHGGHYYAFIRPTLSDQWYKFDDERVTKEDVKRALEEQYGGEEELPQNNPGFNNPPFKFTKYSNAYMLVYIRESDKDKIICNVDEKDIAEHLRVRLKKEQEEKEDKRKYKAQAHLFTTIKVARDDDITEQIGKNIYFDLVDHEKVRSFRIQKQTPFQQFKEEVAKEFGVPVQLQRFWIWAKRQNHTYRPNRPLSPNEELQTVGQIREASNKANNAELKLFLEIERGPDDLPIPPPEKTSEDILLFFKLYDPENAVLRYVGRLMVKSSSKPMDIVGQLNKMAGFAPDEEIELFEEIKFEPCVMCEQIDKKTSFRLCQIEDGDIICYQKPLSIEESEFRYPDVPSFLEYVQNRELVRFRTLEKPKEDEFTMELSKLHTYDDVVERVAEKLGLDDPSKLRLTSHNCYSQQPKPQPIKYRGVDHLSDMLVHYNQTSDILYYEVLDIPLPELQGLKTLKVAFHSATKDEVIIHNIRLPKQSTVGDVINELKTKVELSHQDAELRLLEVFFHKIYKIFPSTERIENINDQYWTLRAEEIPEEEKNIGPNDRLIHVYHFTKEAGQNQQVQNFGEPFFLVIHEGETLEEIKTRIQKKLHVPDEDFAKWKFASFSMGRPDYLLDTDVVYNRFQRRDVYGAWEQYLGLEHIDNAPKRAYAANQNRHAYEKPVKIYN
B5: AtNFXL1, endogenous (protein, UniProt Q9SY59 1-1188)
chain: MSFQVRRDRSDDRSHRFNHQQTWIPRNSSTSSVVVNEPLLPPNTDRNSETLDAGSASRPVYLQRQHNASGPPSYNHHQRSSNIGPPPPNQHRRYNAPDNQHQRSDNIGPPQPNQHRRYNAPDNQHQRSDNSGPPQPYRHRRNNAPENQHQRSDNIGPPPPNRQRRNNASGTLPDNRQRVASRTRPVNQGKRVAKEENVVLTDPNLPQLVQELQEKLVKSSIECMICYDKVGRSANIWSCSSCYSIFHINCIKRWARAPTSVDLLAEKNQGDNWRCPGCQSVQLTSSKEISYRCFCGKRRDPPSDPYLTPHSCGEPCGKPLEKEFAPAETTEEDLCPHVCVLQCHPGPCPPCKAFAPPRSCPCGKKMVTTRCSERRSDLVCGQRCDKLLSCGRHQCERTCHVGPCDPCQVLVNATCFCKKKVETVICGDMNVKGELKAEDGVYSCSFNCGKPLGCGNHFCSEVCHPGPCGDCDLLPSRVKTCYCGNTRLEEQIRQSCLDPIPSCSNVCRKLLPCRLHTCNEMCHAGDCPPCLVQVNQKCRCGSTSRAVECYITTSSEAEKFVCAKPCGRKKNCGRHRCSERCCPLLNGKKNDLSGDWDPHVCQIPCQKKLRCGQHSCESLCHSGHCPPCLEMIFTDLTCACGRTSIPPPLSCGTPVPSCQLPCPIPQPCGHSDTHGCHFGDCPPCSTPVEKKCVGGHVVLRNIPCGLKDIRCTKICGKTRRCGMHACARTCHPEPCDSFNESEAGMRVTCRQKCGAPRTDCRHTCAALCHPSAPCPDLRCEFSVTITCSCGRITATVPCDAGGRSANGSNVYCAAYDEASVLQKLPAPLQPVESSGNRIPLGQRKLSCDDECAKLERKRVLQDAFDITPPNLEALHFSENSAMTEIISDLYRRDPKWVLAVEERCKFLVLGKARGSTSALKVHIFCPMQKDKRDTVRLIAERWKLGVSNAGWEPKRFTVVHVTAKSKPPTRIIGARGGAISIGGPHPPFYDSLVDMDPGLVVSFLDLPREANISALVLRFGGECELVWLNDKNALAVFHDHARAATAMRRLEHGSVYHGAVVVQSGGQSPSLNNVWGKLPGSSAWDVDKGNPWRRAVIQESDDSWGAEDSPIGGSSTDAQASALRSAKSNSPIVTSVNRWSVLEPKKASTSTLEPIAQIEESSSSKTTGKQPVEGSGEEVVDDWEKVCE

No constants are given. Whether binding was seen depends on the method and setting. Binding seen in cells or lysates may run through a third protein. A yes stands for co-enrichment or nearness to the bait. Other partners may have been found.

One test concerns the target SWO1g-Myc (SWOLLEN 1 with 3xMyc, from SWO1pro:SWO1g-Myc) (Arabidopsis thaliana) (UniProt F4JP43). Put plainly: affinity purification with mass spectrometry; SWO1g-Myc as bait from transgenic Arabidopsis seedlings; anti-Myc agarose beads, 4 °C, 2 h; lysis buffer 50 mM Tris pH 7.6, 150 mM NaCl, 5 mM MgCl2, 10% glycerol, 0.1% NP-40, 0.5 mM DTT; four independent experiments.
In the case of “CHR11 (chromatin remodeling protein), endogenous (from UniProt Q8RWY3 1-1056)”, the binding entry is “binds”.

In the case of “IMPA2 (importin alpha), endogenous (from UniProt F4JL11 1-535)”, the binding entry is given as “binds”.

On to “XPO1A, endogenous (from UniProt Q9SMV6 1-1075)”, for which the binding result is on record as “binds”.

In the case of “IMPA1 (importin alpha), endogenous (from UniProt Q96321 1-532)”, the binding entry was “binds”.

For the molecule “MOS6 (importin alpha 3), endogenous (from UniProt O04294 1-531)”, the binding result is “binds”.

For “IMPA4 (importin alpha), endogenous (from UniProt O80480 1-538)”, the binding result is reported as “binds”.

Another test has the same target. The description is as above. This is another data set of the same source.
Consider B1, for which the binding entry is “binds”.

For the molecule B2, the binding result is on record as “binds”.

Consider B3, for which the binding entry is “binds”.

Regarding B4, the binding entry was “binds”.

As to B5, the binding result is on record as “binds”.
